# According to PubChem BioAssay AID493199 (National Center for Advancing Translational Sciences (NCATS), 2011):
# Sequences of proteins named here, by UniProt entry; tags and fusion partners are left off.
# UniProt Q9NR56, whole entry: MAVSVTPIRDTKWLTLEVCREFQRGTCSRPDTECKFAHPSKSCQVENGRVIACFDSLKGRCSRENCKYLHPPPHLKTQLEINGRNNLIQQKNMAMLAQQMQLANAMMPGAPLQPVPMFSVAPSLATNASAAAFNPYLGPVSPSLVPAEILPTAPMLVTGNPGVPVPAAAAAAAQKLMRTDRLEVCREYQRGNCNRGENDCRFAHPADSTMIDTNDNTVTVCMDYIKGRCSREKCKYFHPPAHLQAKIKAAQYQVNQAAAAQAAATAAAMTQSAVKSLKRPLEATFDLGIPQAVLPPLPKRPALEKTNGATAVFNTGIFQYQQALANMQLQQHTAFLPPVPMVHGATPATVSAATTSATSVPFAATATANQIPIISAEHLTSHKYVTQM
# The source calls these results inconclusive, neither active nor inactive. The call rests on the fitted dose curve; in most records, active means well fitted inhibition curve with a large enough effect; inconclusive means small, poorly fitted or top-dose-only effect, or effect the other way; inactive means no such curve, though single readings can be large or run the other way.
# Biological target: Muscleblind-like protein 1 (Homo sapiens) (UniProt Q9NR56)
# Assay: qHTS Assay for Inhibitors of MBNL1-poly(CUG) RNA binding: Initial hit validation from the primary screen
# Details: TR-FRET MBNL1-His / biotin-(CUG)12 binding, 60 min
# Source text: NIH Chemical Genomics Center [NCGC] NIH Molecular Libraries Probe Production Centers Network [MLPCN] MLPCN Grant: R03 MH087421-01 Assay Submitter (PI): Charles Thornton NCGC Assay Overview: Expanded CTG repeats in the 3' untranslated region of the DM protein kinase (DMPK) gene causes type I myotonic dystrophy (DM1). DM1 is a multi-systemic disease with a prevalence of 1/7000. Clinical features include myotonia, progressive muscle weakness and wasting, cardiac arrhythmia, insulin resistance, hypersomnolence, cataracts, and other symptoms. The pathogenic effect of expanded CTG repeats stems from deleterious effects of the mutant transcript. CUGexp mRNA accumulates in nuclear foci and sequesters proteins of the muscleblind family, of which MBNL1 is the most common family member in skeletal muscles. […] This brings the terbium label within close proximity to XL665 to allow time-resolved fluorescence resonance energy transfer (TR-FRET). […]
# NCGC Assay Protocol Summary: This is a TR-FRET binding assay with MBNL1-His and Biotin-(CUG)12 RNA. […] (3) Add 1 ul of terbium labeled anti-His antibody (0.055 ng/ul final concentration) (4) Add 1 ul of streptavidin-XL665 (5 nM final concentration) (5) Incubate 60 min at room temperature (6) Detect the assay plate in a EnVision plate reader (PerkinElmer) with Ex=340 nm, Em1=665 nm and Em2=545 nm. […]
row,Compound,Potency
1,N#[O+].[C-]#N.[C-]#N.[C-]#N.[C-]#N.[C-]#N.[Fe+2].[Na+].[Na+],inconclusive: 35.5 µM
2,C/C1=C2N=C(/C=C3N=C(/C(C)=C4\[N-][C@@](C)([C@H]5N=C1[C@@](C)(CCC(=O)NC[C@H](C)OP(=O)([O-])O[C@@H]1[C@H](O)[C@H](n6cnc7cc(C)c(C)cc76)O[C@@H]1CO)[C@@H]5CC(N)=O)[C@](C)(CC(N)=O)[C@H]4CCC(N)=O)[C@@](C)(CC(N)=O)[C@@H]\3CCC(N)=O)C(C)(C)[C@@H]/2CCC(N)=O.[C-]#N.[Co+3],inconclusive: 0.0139 µM
